Measured values as given in US6083920A, “Compositions for modulating intracellular inositol trisphosphate concentration” (priority 1996, dated 2000).
At least one structure is not confirmed: it was looked up by name or label, or the drawing left a doubt.

Tested on: InsP3 signalling in primary chick cortical neurons
Assay: Phosphoinositide hydrolysis assay (InsP3 signalling) in cultured primary cortical neurons
Assay type: cell-based
Settings: washed, then 100 μM agonist 20 min, normalized to control = 1.00
Experimental: Primary cultures of neurons were prepared from the telencephalon of white Leghorn chick embryos on the eighth day of their development (Rosenberg et al., J.Biol. Chem. 267:10601-10612, 1992). The neurons were seeded in 24-well plastic tissue culture plates that had been coated with L-polylysine. The density of the neurons was 10^5 cells per well, and they were cultured in Dulbecco's modified Eagle's medium/Ham's high glucose F-12 medium (1:1, vol:vol) containing 500 ng/L sodium selenite, 500 μg/L transferrin, and 165 pmole/L EGF. The cultures were maintained at 37° C. under 5% CO2 in air for 4 days, by which time the cells had differentiated into neurite-bearing cortical granulocytic neurons. […]
Receptor-stimulated and basal unstimulated hydrolysis of phosphoinositides was measured by the following procedure. […]
In addition, a 0.5 ml aliquot of the lower (chloroform) phase of each sample was analyzed radiometrically by scintillation spectrometry in order to determine the quantity of lipid-bound [^3 H]myo-inositol. Estimation of phosphoinositide hydrolysis by phospholipase C is based upon the quantity of [^3 H]inositol phosphates produced, and is expressed as the percentage of the latter relative to total free and componential [^3 H]inositol (dpm ammonium formate+dpm chloroform fractions). […]

## N[C@@H](CCC(=O)O)C(=O)O [Glutamate, glutamate]
Neurons preincubated with 20 μM Lysosphingomyelin 30 min
  Ins-P-n, modulator Lsm: "
Neurons preincubated with 20 μM Psychosine 30 min
  Ins-P-n, modulator Psy: "
